Record: PubChem BioAssay AID1259308 (NCATS, 2017)
Aim: 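Candidate targets for better recombinant protein yield in mammalian cells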 (primary screen). System: human HEK293 embryonic kidney cells stably expressing firefly luciferase (HEK-CMV-Luc2-Hygro). Reagent: single siRNA against human genes, 0.8 pmol siRNA per well. Duration: 72 h. Read-out: 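Luciferase light (ONE-Glo) measured on one replicate plate set and viability (CellTiter-Glo) on the other, scaled to a negative control siRNA, with robust z-scores and luciferase per cell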. Scale: total luciferase, z-score: higher = more reporter protein produced. Active means: 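An siRNA counts as active if its total luciferase robust z-score exceeds 3; genes with two or more such siRNAs out of three were retested with fresh siRNAs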. Calls: active = raised luciferase; inactive = no rise.
Shown is one part, drawn at random, of about 59,000 reagents tested. In the full data, about 1,510 (2.6%) got an active call. 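Calls use total luciferase alone and ignore viability, so some active siRNAs may act by altering cell number.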 Reagents against one gene are numbered here. Further read-outs or replicates are left out here.

INPPL1 (GeneID 3636) #1 | total luciferase, z-score: 1.02; Outcome: inactive
INPPL1 (GeneID 3636) #2 | total luciferase, z-score: 1.19; Outcome: inactive
INPPL1 (GeneID 3636) #3 | total luciferase, z-score: 0.438; Outcome: inactive
AZIN1 (GeneID 51582) #1 | total luciferase, z-score: -1.83; Outcome: inactive
AZIN1 (GeneID 51582) #2 | total luciferase, z-score: -2.85; Outcome: inactive
AZIN1 (GeneID 51582) #3 | total luciferase, z-score: -2.59; Outcome: inactive

Not a retest: 2 of the entries above.
AZIN1 (GeneID 51582) #2 | total luciferase, z-score: -2.85; Outcome: inactive
AZIN1 (GeneID 51582) #3 | total luciferase, z-score: -2.59; Outcome: inactive

Next records follow.
LARS2 (GeneID 23395) #1 | total luciferase, z-score: -0.145; Outcome: inactive
LARS2 (GeneID 23395) #2 | total luciferase, z-score: 0.285; Outcome: inactive
LARS2 (GeneID 23395) #3 | total luciferase, z-score: -0.228; Outcome: inactive
FER1L6-AS1 (GeneID 439941) #1 | total luciferase, z-score: -0.604; Outcome: inactive
FER1L6-AS1 (GeneID 439941) #2 | total luciferase, z-score: -0.676; Outcome: inactive
FER1L6-AS1 (GeneID 439941) #3 | total luciferase, z-score: 0.754; Outcome: inactive
